Measured values: US20250152613A1, “COMPOSITIONS AND METHODS FOR COVID-19 TREATMENT” (101 THERAPEUTICS LTD., priority 2022, published 2025)
At least one structure is not confirmed: it was looked up by name or label, or the drawing left a doubt.

Test system: bleomycin-induced PF mice model
Test: bleomycin-induced pulmonary fibrosis (PF) mice model
Parameters: species or system C57BL/6 mice
Settings: mouse, in vivo
Source text: Post COVID-19 pulmonary fibrosis (PF) is defined as the presence of persistent and different fibrotic tomographic changes, often combined with impairment in pulmonary function tests. The pathogenesis of post-COVID-19 PF is partially known and likely multifactorial. Excessive production of reactive oxygen species and non-protective mechanical ventilation are potential triggers for post-COVID-19 PF. To explore the beneficial effect of compound 1 in pulmonary fibrosis, a bleomycin-induced PF mice model was utilized. Bleomycin is known for its ability to induce lung injury resulting in an acute inflammatory response, and the inflammatory phase is followed by fibrotic changes. In this model, direct administration of bleomycin to the lungs decreases survival of treated mice, due to vast pulmonary damage. The study was performed in 5 treatment groups of C57BL/6 mice (n=10-12 per group) and included early or late treatment with compound 1 (1 mg/mouse), early treatment with dexamethasone (DEX) in an amount of 0.45 mg/mouse, vehicle, and naïve control groups. […] Animals were monitored for morbidity, mortality, body weight, and clinical signs. Selected clinical signs (i.e., physical appearance, activity, ability to respond to external stimulus, eyes, and respiration quality) were scored to provide a clinical score. Cytokine levels in BALF (Day 33) and serum (Days 17 & 32) were determined.

## C[C@@H]1C[C@H]2[C@@H]3CCC4=CC(=O)C=C[C@]4(C)[C@@]3(F)[C@@H](O)C[C@]2(C)[C@@]1(O)C(=O)CO [DEX, dexamethasone, reference compound]
  lung fibrosis by histopathological evaluation vs. vehicle control: reduction in lung fibrosis
